Where two headings read alike, the source gives them in different places. Marks after values point to notes of the source that are not given here.
What was measured:
[1] = PBPK model input; ref Chemical book; cited from earlier work
[2] = rats
[3] = tested on: CYP450s of Rat Liver Microsomes (RLMs); test: In vitro CYP450 metabolism of ATV and inhibition by LUT in rat liver microsomes; conditions: mean ± SD, n = 3
[4] = formation of 2-OH-ATV in RLMs, ATV + 5μM LUT
[5] = formation of 2-OH-ATV in RLMs, ATV + 10μM LUT
[6] = formation of 2-OH-ATV in RLMs, ATV without LUT
[7] = formation of 4-OH-ATV in RLMs, ATV + 5μM LUT
[8] = formation of 4-OH-ATV in RLMs, ATV + 10μM LUT
[9] = formation of 4-OH-ATV in RLMs, ATV without LUT

- Increase of Cmax of ATV ([2]; co-administered with LUT versus ATV alone): 1.87 fold
- Increase of Cmax of ATV ([2]; co-administered with LUT-NS-LP versus ATV alone): 5.42 fold
- Km [3, 4]: 6.51 ± 0.27 µM
- Km [3, 5]: 5.56 ± 0.22 µM
- Km [3, 6]: 6.55 ± 0.1 µM
- Km [3, 7]: 13.1 ± 3.1 µM
- Km [3, 8]: 15.7 ± 2.37 µM
- Km [3, 9]: 4.5 ± 0.14 µM
SMILES: CC(C)c1c(C(=O)Nc2ccccc2)c(-c2ccccc2)c(-c2ccc(F)cc2)n1CC[C@@H](O)C[C@@H](O)CC(=O)O [ATV, Atorvastatin]
- Drug particle density [1]: 1.23 ± 0.1^d g/mL
- Vmax [3, 4]: 16.99 ± 0.26 pmol/min/mg
- Vmax [3, 5]: 13.66 ± 0.05 pmol/min/mg
- Vmax [3, 6]: 22.27 ± 0.16 pmol/min/mg
- Vmax [3, 7]: 16.95 ± 2.20 pmol/min/mg
- Vmax [3, 8]: 12.04 ± 1.03 pmol/min/mg
- Vmax [3, 9]: 23.75 ± 0.64 pmol/min/mg

Reference: publication PMC11881160 (International Journal of Nanomedicine, 2025)
